The record followed here is publication PMC7110113, “Termination of non‐coding transcription in yeast relies on both an RNA Pol II CTD interaction domain and a CTD‐mimicking region in Sen1” (The EMBO Journal, 2020).

The target in one test is T1, Nrd1-TAP (S. cerevisiae) (UniProt P53617).
T1 sequence: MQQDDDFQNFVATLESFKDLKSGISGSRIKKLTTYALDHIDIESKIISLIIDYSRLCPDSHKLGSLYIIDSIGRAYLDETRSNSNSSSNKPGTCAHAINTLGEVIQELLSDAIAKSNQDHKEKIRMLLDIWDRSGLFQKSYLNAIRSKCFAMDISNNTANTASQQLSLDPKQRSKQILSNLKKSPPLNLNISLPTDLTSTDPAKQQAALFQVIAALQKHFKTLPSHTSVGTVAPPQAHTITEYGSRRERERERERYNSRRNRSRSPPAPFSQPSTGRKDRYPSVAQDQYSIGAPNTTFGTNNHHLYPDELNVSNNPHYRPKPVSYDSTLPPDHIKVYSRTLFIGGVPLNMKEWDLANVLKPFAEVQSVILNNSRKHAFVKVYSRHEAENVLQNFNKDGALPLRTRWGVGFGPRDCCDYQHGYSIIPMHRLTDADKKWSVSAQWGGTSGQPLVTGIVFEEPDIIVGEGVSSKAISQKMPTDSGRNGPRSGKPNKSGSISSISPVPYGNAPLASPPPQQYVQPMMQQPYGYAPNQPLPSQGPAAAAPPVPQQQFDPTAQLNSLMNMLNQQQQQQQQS
In words: co-IP; TAP-tagged Nrd1 (wt or ∆CID) as bait on IgG Fast Flow Sepharose from yeast extracts; lysis buffer 10 mM sodium phosphate pH 7, 200 mM sodium acetate, 0.25% NP-40, 2 mM EDTA, 1 mM EGTA, 5% glycerol; Sen1 detected by blot (Fig 1A, 1C, EV3E).

In test [1] the target is His6-GST-tagged Sen1 Cter ∆NIM (S. cerevisiae) (UniProt Q00416). In words: pull-down; E. coli extract with His6-GST-Sen1 Cter (wt or ∆NIM) incubated with glutathione sepharose, then mixed with yeast extract expressing Sen1 TAP-Nter; extracts treated with 50 μg/ml RNase A; washed with lysis buffer (10 mM sodium phosphate pH 7, 200 mM sodium acetate, 0.25% NP-40); eluted with glutathione.

Results are given in words; binding and its absence hold for the method and conditions named. Binding seen in cells or lysates may run through a third protein. Binding can be weak; no strength is given.

As to “Sen1∆Cter (S. cerevisiae) (domain or fragment)”, the binding result with Nrd1-TAP (S. cerevisiae) is reported as “no binding”.

On to Sen1∆NIM (from UniProt Q00416), for which, in the test with Nrd1-TAP (S. cerevisiae), the binding entry is recorded as “binds weakly”.

B1: Sen1 TAP-Nter (domain or fragment, UniProt Q00416 1-975)
chain: MNSNNPDNNNSNNINNNNKDKDIAPNSDVQLATVYTKAKSYIPQIEQVYQGTNPNIQEAKLLGELLQVLAEVPKGTHLFCDPILEPISIFSLTIFSFNEEATATWLKNHFNPILSVCDKCILNFARGKCKMLQHFAIQRHVPHEHVAKFNDIVCQWRVEAVFPILRNISVNDNTGINITNEIETAMYECLCNPHMLRLNKQLKATFEAIFKFFYDTKHRLLDVTNPLSIKTFISGVIFCWCEGSKEENEWSRAFLKDLYSRNFHINLSNLTPDIIEEVYIHILFLQNPANWTEIVVSQFWSRLLPVFNLFDKDVFIEYFQVPKNVESLKKTFKFPLEPIFKMWYNHLSKSYHDKPLDFLLRGLTMFLNKFGSEFWSKIEPFTFHSILDIIFNRDSFPIKLIKIQDNPIVEHQTEVYFQLTGSVTDLLSWTLPFYHALSPSKRIQMVRKVSMAFLRIIANYPSLKSIPKACLMNSATALLRAVLTIKENERAMLYKNDEFETVLLTKTDSRALLNNPLIQDIIIRSASNPNDFYPGLGAASASVATSTMMVLAECIDFDILLLCHRTFKLYSGKPISEIPISTNVLENVTNKIDLRSFHDGPLLAKQLLVSLKNINGLLIVPSNTAVAEAHNALNQKFLLLSTRLMEKFADILPGQLSKILADEDASQGFWSCIFSSDKHLYQAATNILYNTFDVEGRLEGILAILNSNLTVNLKNINVMLQRLINCEFYEPCPRAVRVLMDVVSAFVDPISGVFANFQTLKSQNTEKEFLKFWESCWLFLDTIYKFTLKWASKYDYSELENFTKDTLDLSRSLVDSFREFSDILHDQTKNLLLNVLETFKNMLYWLRLSDEVLLESCVRLIISTSDLAHEKHVKVDDSLVEMMAKYASKAKRFSNKLTEQQASEILQKAKIFNKALTEEVATEAENYRKEKELSRLGKVIDLTDSVPASPSLSPSLSSTIASSSAESRADYLQRK
For the molecule B1, the binding entry in test [1] is “binds”.
